These are literature values, as cited in publication PMC5026937 (Antiviral research, 2016).

The subject of data set [1] is phosphatase activity of calcineurin. The settings on record: ref Jeffery, 1991; cited from earlier work.
The conditions of data set [2]: ref Jeffery, 1991; cited from earlier work.

As for `C/C=C/C[C@@H](C)[C@@H](O)[C@H]1C(=O)N[C@@H](CC)C(=O)N(C)CC(=O)N(C)[C@@H](CC(C)C)C(=O)N[C@@H](C(C)C)C(=O)N(C)[C@@H](CC(C)C)C(=O)N[C@@H](C)C(=O)N[C@H](C)C(=O)N(C)[C@@H](CC(C)C)C(=O)N(C)[C@@H](CC(C)C)C(=O)N(C)[C@H](C(C)C)C(=O)N1C` [CsH (5), Cyclosporine H], the “inhibition of the phosphatase activity of calcineurin” value in data set [1] is listed as “does not inhibit the phosphatase activity of calcineurin”. For the same compound, the immunosuppressant activity result in data set [2] is “no immunosuppressant activity”.
